Data published in paper PMC3976342.
No constants are given. Whether binding was seen depends on the method and setting. Binding calls can cover weak binding; strength is not graded here. Tags and fused reporters may be left off the sequences shown. One block for each binder: values may come before it.

Target: Nhtt150Q-EGFP (exon 1 of huntingtin containing 150Q, tagged with EGFP at its C-terminus)
Experiment: co-insolubilisation (gel top band on Western blot); neuro2a cells co-transfected with Nhtt-EGFP and V5-tagged proteins, one day, cells boiled in SDS sample buffer, Western blot with anti-V5 and anti-GFP; gel top bands of the V5-tagged protein

binding: binds
B1: Tcf20 (1∼400)-V5 (domain or fragment, UniProt Q9EPQ8 1-400)
chain: MQSFREQSSYHGNQQSYPQEVHSSSRIEEFSPRQAQMFQNFGGAGGGSSGTGSSSSGRRGTAAAAAAMASETSGHQGYQGFRKEAGDFYYMAGNKDTVAAGTPQPPQRRPSGPVQSYGPPQGSSFGNQYASEGHVSQFQAQHSALGGVSHYQQDYTGPFSPGSAQYQQQASSQQQQQQQQQQQQQQQQQQQQVQQLRQQLYQSHQPLPQTTGQPASGSSHLQPMQRPSTLPSSAGYQLRVGQFGQHYQSSASSSSSSSFPSPQRFSQSGQSYDGSYSVNAGSQYEGHNVGSNAQAYGTQSNYSYQPQSMKNFEQAKIPPGNQQGQQQQQQQPQPQQQQPQQQQQQQQQQQHPPQHVMQYTNAATKMPLQSQVGQYNQPEVPVRSPMQFHQNFSPISNPSP

binding: binds
B2: Tcf20 (1∼500)-V5 (domain or fragment, UniProt Q9EPQ8 1-500)
chain: MQSFREQSSYHGNQQSYPQEVHSSSRIEEFSPRQAQMFQNFGGAGGGSSGTGSSSSGRRGTAAAAAAMASETSGHQGYQGFRKEAGDFYYMAGNKDTVAAGTPQPPQRRPSGPVQSYGPPQGSSFGNQYASEGHVSQFQAQHSALGGVSHYQQDYTGPFSPGSAQYQQQASSQQQQQQQQQQQQQQQQQQQQVQQLRQQLYQSHQPLPQTTGQPASGSSHLQPMQRPSTLPSSAGYQLRVGQFGQHYQSSASSSSSSSFPSPQRFSQSGQSYDGSYSVNAGSQYEGHNVGSNAQAYGTQSNYSYQPQSMKNFEQAKIPPGNQQGQQQQQQQPQPQQQQPQQQQQQQQQQQHPPQHVMQYTNAATKMPLQSQVGQYNQPEVPVRSPMQFHQNFSPISNPSPAASVVQSPSCSSTPSPLMQSGENLQCGQGNVPMSSRNRILQLMPQLSPTPSMMPSPNSHAAGFKGFGLEGVPEKRLTDPGLSSLSALSSQVANLPNTVQH
